In EP0738149B1 (priority 1994, dated 1995):

Tested on: rats
Test: Maximal electroshock (MES) model in rats, p.o.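 Further: rat MES model gauging antiepileptic efficacy versus generalized and partial seizures after oral dosing.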
Type: in vivo
Conditions: PI=TD50/ED50, Table 15

For `C[C@@H]1Cc2ccccc2[C@H]1N` [Example 39, (rac)-trans-2-Methyl-1-aminoindan.HCl], the “RATS MES PI” value was >1.

With `C[C@H]1Cc2ccccc2[C@H]1N` [Example 40, (rac)-cis-2-Methyl-1-aminoindan.HCl] the “RATS MES PI” value was >1.

Where a name gives a salt, the structure may show the parent alone.
